One experiment has as its target Tm-2^2 (L246A) (tomato) (UniProt Q71BG9). The experiment is described as follows: co-IP; Myc- and HA-tagged copies of full-length Tm-2^2 (or mutant) co-expressed WITH TMV MP-YFP (GenBank BAF93925.1) in N. benthamiana; leaves collected at 22-24 hpi; IP with anti-Myc beads, 3 h at 4°C, IP buffer 25 mM Tris-HCl pH 7.5, 150 mM NaCl, 1 mM EDTA, 10% glycerol, 10 mM DTT, 0.2-0.5% NP-40; blot anti-HA.

In the next experiment the target is Tm-2^2 (K191R) (tomato) (UniProt Q71BG9). The experiment is described as above.

Where a chain is given by its changes, count along the chain named. Numbers in names are those of the source. No constants are given. Whether binding was seen depends on the method and setting. Binding seen in cells or lysates may run through a third protein. Some entries that bind do so weakly or less than the wild type.

B1: Tm-2^2 (L246A) (receptor, UniProt Q71BG9 1-861)
chain: MAEILLTSVINKSVEIAGNLLIQEGKRLYWLKEDIDWLQREMRHIRSYVDNAKAKEAGGDSRVKNLLKDIQELAGDVEDLLDDFLPKIQQSNKFNYCLKRSSFADEFAMEIEKIKRRVVDIDRIRKTYNIIDTDNNNDDCVLLDRRRLFLHADETEIIGLDDDFNMLQAKLLNQDLHYGVVSIVGMPGLGKTTLAKKLYRLIRDQFECSGLVYVSQQPRASEILLDIAKQIGLTEQKMKENLEDNARSLLKIKRYVILLDDIWDVEIWDDLKLVLPECDSKVGSRMIITSRNSNVGRYIGGESSLHALQPLESEKSFELFTKKIFNFDDNNSWANASPDLVNIGRNIVGRCGGIPLAIVVTAGMLRARERTEHAWNRVLESMGHKVQDGCAKVLALSYNDLPIASRPCFLYFGLYPEDHEIRAFDLINMWIAEKFIVVNSGNRREAEDLAEDVLNDLVSRNLIQLAKRTYNGRISSCRIHDLLHSLCVDLAKESNFFHTAHDAFGDPGNVARLRRITFYSDNVMIEFFRSNPKLEKLRVLFCFAKDPSIFSHMAYFDFKLLHTLVVVMSQSFQAYVTIPSKFGNMTCLRYLRLEGNICGKLPNSIVKLTRLETIDIDRRSLIQPPSGVWESKHLRHLCYRDYGQACNSCFSISSFYPNIYSLHPNNLQTLMWIPDKFFEPRLLHRLINLRKLGILGVSNSTVKMLSIFSPVLKALEVLKLSFSSDPSEQIKLSSYPHIAKLHLNVNRTMALNSQSFPPNLIKLTLAYFSVDRYILAVLKTFPKLRKLKMFICKYNEEKMDLSGEANGYSFPQLEVLHIHSPNGLSEVTCTDDVSMPKLKKLLLTGFHCRISLSERLKKLSK
Regarding B1, in the experiment with Tm-2^2 (L246A) (tomato), the binding result is “binds”.

B2: Tm-2^2 (K191R) (receptor, UniProt Q71BG9 1-861)
chain: B1 chain with K191R, A246L
B2: the binding result with Tm-2^2 (K191R) (tomato) is recorded as “no binding”.

Values taken from PMC7205312.
